Experiment [1] concerns the target caveolin-1 (human (endogenous in HCT-116)) (UniProt Q03135). Put plainly: co-IP; IP of caveolin-1 (antibody for the IP not told); 500 ug HCT-116 lysate in NET buffer; cells after Ca2+ store depletion by Tg; immunoblot.
The target is the same in experiment [2]. Put plainly: condition: only control conditions, before Ca2+ store depletion by Tg; co-IP; IP of caveolin-1 (antibody for the IP not told); 500 ug HCT-116 lysate in NET buffer; cells in control conditions, before Ca2+ store depletion (no Tg); immunoblot.
The target in experiment [3] is STIM1 (human (endogenous in HCT-116)) (UniProt Q13586). Put plainly: co-IP; IP with anti-STIM1 (sc-68897), protein A-sepharose; 500 ug HCT-116 lysate in NET buffer (50 mM Tris-HCl pH 7.4, 150 mM NaCl, 5 mM EDTA, 0.05% NP-40), overnight at 4 C; cells after Ca2+ store depletion by thapsigargin (Tg); immunoblot.
For experiment [4] the target is unchanged. Put plainly: condition: only control conditions, before Ca2+ store depletion by Tg; co-IP; IP with anti-STIM1 (sc-68897), protein A-sepharose; 500 ug HCT-116 lysate in NET buffer (50 mM Tris-HCl pH 7.4, 150 mM NaCl, 5 mM EDTA, 0.05% NP-40), overnight at 4 C; cells in control conditions, before Ca2+ store depletion (no Tg); immunoblot.

Chains of the proteins cited; added tags and fusions are not shown. Residues count along the entry.
UniProt Q03135: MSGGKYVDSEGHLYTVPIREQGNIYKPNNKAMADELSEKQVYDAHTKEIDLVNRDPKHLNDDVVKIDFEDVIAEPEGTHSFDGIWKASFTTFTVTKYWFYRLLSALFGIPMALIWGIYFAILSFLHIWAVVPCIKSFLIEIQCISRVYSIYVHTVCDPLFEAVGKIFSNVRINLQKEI
UniProt Q13586, residues 23-685: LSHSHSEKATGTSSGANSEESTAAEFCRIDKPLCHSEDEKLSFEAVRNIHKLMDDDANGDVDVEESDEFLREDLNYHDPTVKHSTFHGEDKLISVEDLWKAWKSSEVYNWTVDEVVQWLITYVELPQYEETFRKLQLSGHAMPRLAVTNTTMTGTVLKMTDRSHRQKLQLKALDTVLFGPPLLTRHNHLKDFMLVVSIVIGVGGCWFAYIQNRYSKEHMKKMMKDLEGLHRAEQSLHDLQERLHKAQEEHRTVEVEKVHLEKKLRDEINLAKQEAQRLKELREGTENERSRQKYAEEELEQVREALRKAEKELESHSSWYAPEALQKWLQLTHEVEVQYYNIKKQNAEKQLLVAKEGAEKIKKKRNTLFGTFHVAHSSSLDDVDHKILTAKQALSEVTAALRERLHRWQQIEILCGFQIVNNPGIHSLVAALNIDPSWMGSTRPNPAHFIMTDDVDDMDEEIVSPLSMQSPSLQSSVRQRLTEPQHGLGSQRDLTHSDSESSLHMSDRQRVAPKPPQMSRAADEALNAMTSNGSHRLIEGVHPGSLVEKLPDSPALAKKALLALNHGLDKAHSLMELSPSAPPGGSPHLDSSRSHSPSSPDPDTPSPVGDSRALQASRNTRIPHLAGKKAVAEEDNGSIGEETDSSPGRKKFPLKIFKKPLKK
UniProt Q96D31: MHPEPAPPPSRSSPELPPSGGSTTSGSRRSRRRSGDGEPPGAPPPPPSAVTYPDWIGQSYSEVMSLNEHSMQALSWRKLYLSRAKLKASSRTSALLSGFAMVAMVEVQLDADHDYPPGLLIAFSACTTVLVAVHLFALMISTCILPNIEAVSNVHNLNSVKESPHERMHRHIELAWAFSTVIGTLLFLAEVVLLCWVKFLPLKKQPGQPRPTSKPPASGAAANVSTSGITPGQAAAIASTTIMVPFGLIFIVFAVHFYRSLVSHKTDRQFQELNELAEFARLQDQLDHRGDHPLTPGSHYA
UniProt P48995: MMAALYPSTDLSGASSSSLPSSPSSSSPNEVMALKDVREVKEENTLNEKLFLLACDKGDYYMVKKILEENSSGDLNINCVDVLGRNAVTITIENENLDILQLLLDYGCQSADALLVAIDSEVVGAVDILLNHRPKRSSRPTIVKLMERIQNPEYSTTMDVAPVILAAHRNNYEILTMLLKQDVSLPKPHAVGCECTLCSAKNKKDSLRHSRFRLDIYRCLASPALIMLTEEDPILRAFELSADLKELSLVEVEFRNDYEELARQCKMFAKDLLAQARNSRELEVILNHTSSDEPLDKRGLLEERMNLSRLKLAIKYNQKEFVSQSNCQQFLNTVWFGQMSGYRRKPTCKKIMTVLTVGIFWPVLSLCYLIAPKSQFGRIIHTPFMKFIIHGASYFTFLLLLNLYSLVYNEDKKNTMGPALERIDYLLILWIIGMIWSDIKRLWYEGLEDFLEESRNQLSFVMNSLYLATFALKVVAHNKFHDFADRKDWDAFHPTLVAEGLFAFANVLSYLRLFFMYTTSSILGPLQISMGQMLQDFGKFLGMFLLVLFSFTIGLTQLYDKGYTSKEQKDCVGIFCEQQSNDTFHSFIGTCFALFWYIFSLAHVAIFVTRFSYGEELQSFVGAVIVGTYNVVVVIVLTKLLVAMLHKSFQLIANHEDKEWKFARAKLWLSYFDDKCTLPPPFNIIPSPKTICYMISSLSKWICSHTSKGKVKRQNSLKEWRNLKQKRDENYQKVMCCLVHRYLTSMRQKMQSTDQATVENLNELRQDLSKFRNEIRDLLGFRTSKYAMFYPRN

Results are given in words; binding and its absence hold for the method and conditions named. Binding seen in cells or lysates may run through a third protein. Some results given as binding are weak or reduced against the parent protein; the word gives no strength.

For the substance Orai1 (from UniProt Q96D31 1-301), the values for the binding result in experiment [1] and in experiment [2] were “binds” and “no binding”, respectively.

As to STIM1 (from UniProt Q13586 23-685), the binding result in experiment [1] is “binds”.

For TRPC1 (from UniProt P48995 1-793), the binding entry in experiment [1] was “binds”; in experiment [3] it was “binds”; in experiment [4] it was “no binding”; in experiment [2], “no binding”.

For the substance caveolin-1 (from UniProt Q03135 1-178), the binding result in experiment [3] is reported as “binds”.

(Values after paper PMC5094991.)
